PubChem BioAssay AID504784 – Drosophila RNAi Screening Center | 2011
In all, the deposit lists about 17,000 reagents; shown is an unselected part of those that have a named target and a result. 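Each column is one replicate's B-score; the combined score over replicates was not deposited, so single values may mislead.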 Names joined by + are all predicted targets of the reagent. Further read-outs or replicates are left out here. Reagent sequences are not shown.

Test: 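Fly genes whose silencing alters how much lipid cells keep in droplets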 (primary screen)
Cell system: Drosophila Kc167 embryonic cells
Knock-down reagent: long dsRNA against Drosophila genes, about 250 ng dsRNA per well
Timing: 4 days
Treatment: cells fed 400 µM oleic acid bound to BSA
Detection: 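Cells imaged and segmented; ratio of lipid droplet area to nuclear area, log-transformed, then normalised as a B-score over the screen; higher means more stored lipid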
Reading the numbers: droplet/nuclear area B-score: higher = more stored lipid (overstorage)

gene knocked down | dsRNA | droplet/nuclear area B-score, replicate 1 | droplet/nuclear area B-score, replicate 2
CG18765 | DRSC15392 | -0.019 | -0.00263
htt | DRSC16970 | -0.0942 | 1.05
CG42633 | DRSC16061 | 0.294 | 0.0654
LManV | DRSC03223 | -1.3 | –
msd1 | DRSC08383 | -0.31 | -0.536
rumi | DRSC15177 | -2.2 | 0.162
loco | DRSC15202 | 0.17 | 0.702
loco | DRSC16989 | 4.83 | 0.121
CG8492 | DRSC10984 | 0.517 | 2.69
CG8492 | DRSC21804 | -2.69 | -1.48
Coq4 + Gorab + frc | DRSC10383 | 0.149 | 0.137
PolA1 | DRSC16640 | 2.28 | 3
CG15743 | DRSC19709 | -0.0349 | 1.24
KCNQ | DRSC06121 | -1.12 | -0.994
KCNQ | DRSC06230 | 0.791 | 1.67
CG14333 (retired record) | DRSC14812 | 0.379 | -1.25
CG14333 (retired record) | DRSC15769 | -0.598 | -0.0181
Gycbeta100B | DRSC14039 | -0.264 | 0.723
Gycbeta100B | DRSC14040 | -0.48 | -0.696
Gycbeta100B | DRSC16691 | -2.79 | 6.53
CG14455 | DRSC11712 | 0.107 | 0.00389
Xxylt | DRSC04107 | 0.119 | 0.129
CG14860 | DRSC14983 | 2.44 | 0.427
amon | DRSC13784 | 0.844 | 0.137
amon | DRSC16900 | -0.771 | -0.3
PH4alphaSG2 | DRSC15037 | -2.3 | -1.18
CG14840 | DRSC14964 | -0.61 | 0.65
CG5697 | DRSC15858 | 1.35 | –
CG3021 | DRSC18165 | -0.376 | 0.0123
CG3021 | DRSC18652 | -0.731 | -0.807
r | DRSC19813 | 1.07 | 0.583
r | DRSC19814 | 0.212 | -0.0904
CG7384 | DRSC03053 | -0.0162 | 0.717
CG12951 | DRSC14579 | -1.66 | 0.359
RpL35A | DRSC12302 | 1.32 | 2.83
otp | DRSC04050 | 0.215 | 0.439
otp | DRSC04707 | -0.459 | -0.0724
CG16762 | DRSC08493 | 0.0705 | 1.02
aub | DRSC03486 | 1.37 | -1.19
RpS14a | DRSC18710 | -0.124 | 2.74
PpY-55A | DRSC07513 | -0.175 | 0.35
PpY-55A | DRSC23328 | -0.168 | -0.381
Lst8 | DRSC18262 | -0.021 | -0.0799
Or56a | DRSC07495 | -1.18 | -2.11
Nepl17 | DRSC14880 | 0.0655 | -1.07
G6P | DRSC00414 | 2.57 | 0.578
SkpD | DRSC22208 | -0.0758 | -0.31
CG4073 | DRSC15542 | -0.4 | 3.89
CG17707 | DRSC20650 | 0.37 | -0.631
CG33340 | DRSC14615 | -0.558 | 0.406
RhoGAP102A | DRSC17145 | -1.11 | -0.0132
RpS10b | DRSC19561 | -0.152 | -0.269
CG13308 | DRSC09979 | -0.844 | -0.0468
CG18735 | DRSC04312 | -0.555 | -0.345
CG44098 | DRSC12214 | -1.59 | -0.681
CG44098 | DRSC12327 | 0.35 | 1.55
Stacl + CG8179 (retired record) | DRSC07091 | 4.03 | 6.56
Stacl + CG8179 (retired record) | DRSC23019 | 0.129 | -0.821
Syb | DRSC07559 | -0.118 | -0.1
Not1 | DRSC06787 | 2.86 | 2.02
Not1 | DRSC06794 | 7.14 | 3.03
CG5386 | DRSC15788 | 1.26 | 3.25
Orct2 | DRSC14613 | -0.376 | 0.963
CG15322 | DRSC20680 | -0.111 | -0.422
CG15322 | DRSC23023 | 1.87 | 1.42
Rel | DRSC16819 | -0.106 | -0.383
CG5853 | DRSC01103 | -0.982 | -0.177
CG5853 | DRSC02906 | 0.08 | -0.966
RhoU | DRSC17803 | -0.0466 | -1.79
RhoU | DRSC17804 | 0.0597 | -0.777
RhoU | DRSC22159 | -0.913 | -0.887
RhoU | DRSC22396 | -0.361 | -0.695
CG10147 | DRSC09706 | -0.724 | -1.11
wap | DRSC20626 | -0.0786 | -0.822
Or10a | DRSC20264 | 0.00562 | -0.138
pkaap | DRSC01925 | -0.179 | 0.0356
Dis3 | DRSC16034 | 0.561 | 0.273
Gfat2 | DRSC14598 | 2.63 | 43.7
CG31810 | DRSC01560 | 0.923 | 3.18
CG6337 | DRSC06977 | -0.0252 | -0.0171
CG6337 | DRSC21870 | 3.96 | 0.125
CG13751 | DRSC06422 | 0.827 | 1.1
Ziz | DRSC02506 | -0.122 | -0.197
Ziz | DRSC02976 | -0.81 | 0.199
